Measured values as given in ChEMBL document CHEMBL1909046, “DrugMatrix in vitro pharmacology data”.

Protein sequences, listed by entry. Tags and fused reporters are not part of them. Lines headed by an entry give the natural chain unless they say otherwise; changes in a name come on top. Residues count along the entry.
UniProt P32241, whole entry: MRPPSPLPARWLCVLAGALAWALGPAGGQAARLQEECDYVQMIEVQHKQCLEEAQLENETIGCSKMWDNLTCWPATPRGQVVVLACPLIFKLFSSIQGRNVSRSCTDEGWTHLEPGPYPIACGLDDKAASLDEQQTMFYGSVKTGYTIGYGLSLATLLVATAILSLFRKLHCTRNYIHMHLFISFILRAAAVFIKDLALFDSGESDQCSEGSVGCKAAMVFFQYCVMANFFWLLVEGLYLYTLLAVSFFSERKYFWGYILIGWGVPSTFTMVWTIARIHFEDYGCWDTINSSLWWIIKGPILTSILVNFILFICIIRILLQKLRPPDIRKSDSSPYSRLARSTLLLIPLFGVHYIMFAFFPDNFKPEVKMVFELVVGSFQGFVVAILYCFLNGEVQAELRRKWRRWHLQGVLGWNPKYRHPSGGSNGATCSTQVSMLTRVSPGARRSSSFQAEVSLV
UniProt P22771: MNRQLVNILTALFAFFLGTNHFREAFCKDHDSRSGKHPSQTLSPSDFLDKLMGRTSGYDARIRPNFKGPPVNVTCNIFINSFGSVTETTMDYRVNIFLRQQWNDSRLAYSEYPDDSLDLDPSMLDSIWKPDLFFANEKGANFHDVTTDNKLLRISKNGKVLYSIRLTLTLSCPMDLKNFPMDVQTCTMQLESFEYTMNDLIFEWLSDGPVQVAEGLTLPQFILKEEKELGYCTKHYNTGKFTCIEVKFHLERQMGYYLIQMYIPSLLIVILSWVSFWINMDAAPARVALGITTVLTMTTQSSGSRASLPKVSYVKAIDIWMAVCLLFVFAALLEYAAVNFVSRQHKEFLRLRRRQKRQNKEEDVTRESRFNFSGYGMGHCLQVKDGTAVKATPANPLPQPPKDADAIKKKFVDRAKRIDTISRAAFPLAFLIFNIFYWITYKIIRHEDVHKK
UniProt P24524: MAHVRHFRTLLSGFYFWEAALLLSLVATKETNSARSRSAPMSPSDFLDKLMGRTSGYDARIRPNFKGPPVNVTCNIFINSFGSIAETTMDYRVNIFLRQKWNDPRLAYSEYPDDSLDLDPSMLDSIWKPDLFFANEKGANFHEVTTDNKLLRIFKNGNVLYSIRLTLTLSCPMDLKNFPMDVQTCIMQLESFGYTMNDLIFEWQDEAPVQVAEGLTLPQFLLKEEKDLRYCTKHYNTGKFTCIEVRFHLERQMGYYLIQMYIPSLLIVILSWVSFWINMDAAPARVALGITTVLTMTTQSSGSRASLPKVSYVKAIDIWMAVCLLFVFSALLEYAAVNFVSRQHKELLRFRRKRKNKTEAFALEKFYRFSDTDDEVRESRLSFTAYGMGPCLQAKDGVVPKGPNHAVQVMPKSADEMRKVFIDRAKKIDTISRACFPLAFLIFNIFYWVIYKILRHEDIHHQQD
UniProt P07727: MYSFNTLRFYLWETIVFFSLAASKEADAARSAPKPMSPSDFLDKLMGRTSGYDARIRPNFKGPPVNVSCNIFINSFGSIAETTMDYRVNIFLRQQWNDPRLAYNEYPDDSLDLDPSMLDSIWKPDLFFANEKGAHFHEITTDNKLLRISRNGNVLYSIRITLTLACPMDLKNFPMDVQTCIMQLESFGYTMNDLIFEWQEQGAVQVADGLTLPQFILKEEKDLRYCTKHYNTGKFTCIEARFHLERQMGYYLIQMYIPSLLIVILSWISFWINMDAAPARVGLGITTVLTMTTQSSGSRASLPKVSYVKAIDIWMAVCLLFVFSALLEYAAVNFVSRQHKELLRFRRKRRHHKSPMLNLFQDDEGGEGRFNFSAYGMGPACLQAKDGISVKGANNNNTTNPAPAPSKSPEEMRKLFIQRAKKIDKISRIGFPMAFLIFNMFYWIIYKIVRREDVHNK
UniProt P30542, whole entry: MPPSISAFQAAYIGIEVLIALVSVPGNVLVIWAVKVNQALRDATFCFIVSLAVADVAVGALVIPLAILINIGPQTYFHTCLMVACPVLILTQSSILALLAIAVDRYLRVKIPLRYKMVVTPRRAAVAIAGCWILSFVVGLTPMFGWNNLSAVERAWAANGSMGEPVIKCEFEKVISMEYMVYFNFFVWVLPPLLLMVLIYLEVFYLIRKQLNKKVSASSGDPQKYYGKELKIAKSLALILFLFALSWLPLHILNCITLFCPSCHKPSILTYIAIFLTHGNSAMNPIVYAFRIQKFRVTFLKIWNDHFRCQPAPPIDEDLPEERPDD
UniProt P25024, whole entry: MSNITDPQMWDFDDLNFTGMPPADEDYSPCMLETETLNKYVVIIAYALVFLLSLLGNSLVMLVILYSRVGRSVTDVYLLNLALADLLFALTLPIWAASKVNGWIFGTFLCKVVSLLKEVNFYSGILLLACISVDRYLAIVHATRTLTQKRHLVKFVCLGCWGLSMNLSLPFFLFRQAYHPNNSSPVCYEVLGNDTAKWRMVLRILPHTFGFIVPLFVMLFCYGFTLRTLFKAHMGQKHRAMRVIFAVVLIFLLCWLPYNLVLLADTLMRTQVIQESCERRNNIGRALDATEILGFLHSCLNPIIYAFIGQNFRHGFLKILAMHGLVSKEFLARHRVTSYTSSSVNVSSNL
UniProt Q9Y271: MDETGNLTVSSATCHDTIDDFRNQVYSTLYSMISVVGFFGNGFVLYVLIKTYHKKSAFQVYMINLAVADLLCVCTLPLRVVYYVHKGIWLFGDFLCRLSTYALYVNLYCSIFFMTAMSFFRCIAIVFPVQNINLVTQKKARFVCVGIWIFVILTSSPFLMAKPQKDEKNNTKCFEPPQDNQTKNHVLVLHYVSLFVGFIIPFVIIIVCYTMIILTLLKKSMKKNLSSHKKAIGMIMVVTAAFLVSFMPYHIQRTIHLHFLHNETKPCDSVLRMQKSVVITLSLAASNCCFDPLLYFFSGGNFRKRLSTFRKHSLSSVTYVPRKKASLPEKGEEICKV
UniProt P08588, whole entry: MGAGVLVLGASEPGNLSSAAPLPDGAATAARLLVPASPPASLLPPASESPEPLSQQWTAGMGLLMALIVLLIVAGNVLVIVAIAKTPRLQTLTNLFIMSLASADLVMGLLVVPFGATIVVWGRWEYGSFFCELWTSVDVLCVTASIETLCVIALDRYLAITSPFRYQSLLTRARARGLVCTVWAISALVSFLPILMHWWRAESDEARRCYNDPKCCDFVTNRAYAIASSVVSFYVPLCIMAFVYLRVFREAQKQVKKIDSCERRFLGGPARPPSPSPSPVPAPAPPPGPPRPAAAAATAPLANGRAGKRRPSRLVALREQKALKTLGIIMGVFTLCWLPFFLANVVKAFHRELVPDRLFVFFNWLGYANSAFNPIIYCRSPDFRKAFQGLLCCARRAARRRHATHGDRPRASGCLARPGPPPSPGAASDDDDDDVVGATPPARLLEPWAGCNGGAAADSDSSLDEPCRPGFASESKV
UniProt P17948, whole entry: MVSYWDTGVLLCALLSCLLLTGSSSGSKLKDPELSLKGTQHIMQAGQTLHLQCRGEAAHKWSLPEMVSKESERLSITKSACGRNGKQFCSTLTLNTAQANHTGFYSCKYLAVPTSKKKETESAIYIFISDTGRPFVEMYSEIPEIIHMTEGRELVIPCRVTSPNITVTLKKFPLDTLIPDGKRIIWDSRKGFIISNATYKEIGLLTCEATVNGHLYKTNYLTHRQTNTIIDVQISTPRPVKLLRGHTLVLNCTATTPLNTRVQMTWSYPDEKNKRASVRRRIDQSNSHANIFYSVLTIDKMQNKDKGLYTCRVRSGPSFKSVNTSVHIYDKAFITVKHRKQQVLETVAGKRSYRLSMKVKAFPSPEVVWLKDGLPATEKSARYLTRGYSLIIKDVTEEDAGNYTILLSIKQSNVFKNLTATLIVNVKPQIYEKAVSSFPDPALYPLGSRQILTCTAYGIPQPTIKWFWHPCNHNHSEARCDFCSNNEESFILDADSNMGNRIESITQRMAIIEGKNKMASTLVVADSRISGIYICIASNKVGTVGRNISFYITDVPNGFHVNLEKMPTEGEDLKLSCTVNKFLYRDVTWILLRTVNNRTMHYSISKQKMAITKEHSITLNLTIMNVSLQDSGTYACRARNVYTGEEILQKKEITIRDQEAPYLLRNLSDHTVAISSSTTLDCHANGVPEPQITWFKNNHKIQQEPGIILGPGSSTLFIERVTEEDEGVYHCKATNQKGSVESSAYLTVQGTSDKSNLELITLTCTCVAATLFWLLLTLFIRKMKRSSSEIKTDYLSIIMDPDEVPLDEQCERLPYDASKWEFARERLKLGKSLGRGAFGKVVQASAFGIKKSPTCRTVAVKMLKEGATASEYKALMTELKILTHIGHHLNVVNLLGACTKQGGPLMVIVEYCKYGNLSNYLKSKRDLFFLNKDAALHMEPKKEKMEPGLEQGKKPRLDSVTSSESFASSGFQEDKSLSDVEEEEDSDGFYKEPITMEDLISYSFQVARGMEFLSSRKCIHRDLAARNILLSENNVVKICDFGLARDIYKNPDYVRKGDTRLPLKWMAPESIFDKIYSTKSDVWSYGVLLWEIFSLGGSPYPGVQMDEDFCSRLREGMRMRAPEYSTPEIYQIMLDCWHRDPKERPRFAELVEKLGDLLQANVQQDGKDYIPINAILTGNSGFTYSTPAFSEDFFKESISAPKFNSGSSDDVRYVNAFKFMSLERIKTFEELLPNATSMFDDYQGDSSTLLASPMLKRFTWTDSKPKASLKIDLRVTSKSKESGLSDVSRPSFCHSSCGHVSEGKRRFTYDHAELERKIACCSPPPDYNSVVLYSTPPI
UniProt P21397, whole entry: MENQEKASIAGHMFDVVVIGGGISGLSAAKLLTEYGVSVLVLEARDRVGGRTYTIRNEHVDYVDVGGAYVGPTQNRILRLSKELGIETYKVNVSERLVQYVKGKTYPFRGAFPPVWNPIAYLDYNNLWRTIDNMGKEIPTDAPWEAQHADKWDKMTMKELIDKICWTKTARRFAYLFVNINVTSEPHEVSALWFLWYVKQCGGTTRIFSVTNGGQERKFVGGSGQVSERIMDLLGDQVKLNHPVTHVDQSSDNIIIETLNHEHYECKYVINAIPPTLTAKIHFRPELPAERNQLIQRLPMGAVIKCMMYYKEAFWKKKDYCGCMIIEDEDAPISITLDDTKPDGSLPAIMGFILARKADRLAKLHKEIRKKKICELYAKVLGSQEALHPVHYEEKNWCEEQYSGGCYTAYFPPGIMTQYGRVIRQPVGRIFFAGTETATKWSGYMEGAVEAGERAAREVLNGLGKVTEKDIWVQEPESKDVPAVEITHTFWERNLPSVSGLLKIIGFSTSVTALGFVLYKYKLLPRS
UniProt P15127, 27-759 limits assumed: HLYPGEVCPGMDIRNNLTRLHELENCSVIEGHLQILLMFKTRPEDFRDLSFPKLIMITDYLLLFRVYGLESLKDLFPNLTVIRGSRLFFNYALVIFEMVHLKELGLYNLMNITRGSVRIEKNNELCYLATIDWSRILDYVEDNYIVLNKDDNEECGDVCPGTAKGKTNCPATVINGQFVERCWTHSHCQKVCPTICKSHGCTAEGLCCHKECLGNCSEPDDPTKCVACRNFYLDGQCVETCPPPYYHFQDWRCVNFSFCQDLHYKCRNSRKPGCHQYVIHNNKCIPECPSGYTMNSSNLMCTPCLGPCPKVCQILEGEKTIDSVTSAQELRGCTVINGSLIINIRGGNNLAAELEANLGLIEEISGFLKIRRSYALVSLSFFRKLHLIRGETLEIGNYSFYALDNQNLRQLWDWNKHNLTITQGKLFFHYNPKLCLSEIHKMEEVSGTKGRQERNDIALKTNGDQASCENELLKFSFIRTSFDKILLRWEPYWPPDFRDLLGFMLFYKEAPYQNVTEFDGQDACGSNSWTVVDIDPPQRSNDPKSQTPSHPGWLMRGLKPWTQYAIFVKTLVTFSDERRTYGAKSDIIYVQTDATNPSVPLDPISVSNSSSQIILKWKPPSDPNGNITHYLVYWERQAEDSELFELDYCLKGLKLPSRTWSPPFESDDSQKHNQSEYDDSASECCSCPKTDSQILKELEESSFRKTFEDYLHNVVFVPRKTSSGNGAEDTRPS
UniProt P15127, 764-1383 limits assumed: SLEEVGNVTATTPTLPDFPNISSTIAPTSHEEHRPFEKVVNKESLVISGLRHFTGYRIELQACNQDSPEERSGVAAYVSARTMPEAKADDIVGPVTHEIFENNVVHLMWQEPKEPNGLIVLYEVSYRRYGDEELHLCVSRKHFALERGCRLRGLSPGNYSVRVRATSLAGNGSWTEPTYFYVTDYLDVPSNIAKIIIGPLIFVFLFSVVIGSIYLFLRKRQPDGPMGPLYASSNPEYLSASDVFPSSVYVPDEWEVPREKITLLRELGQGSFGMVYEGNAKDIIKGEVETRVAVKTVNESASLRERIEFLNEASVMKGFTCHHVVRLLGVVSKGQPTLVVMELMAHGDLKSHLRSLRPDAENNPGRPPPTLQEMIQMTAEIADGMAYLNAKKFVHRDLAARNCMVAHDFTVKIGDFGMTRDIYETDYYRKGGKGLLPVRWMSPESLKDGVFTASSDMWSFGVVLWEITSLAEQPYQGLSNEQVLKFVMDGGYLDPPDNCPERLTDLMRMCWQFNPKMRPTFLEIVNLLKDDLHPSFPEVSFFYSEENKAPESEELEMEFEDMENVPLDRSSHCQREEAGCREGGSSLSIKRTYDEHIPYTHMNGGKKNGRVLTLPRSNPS

Experiments:
[1] = target: Vasoactive intestinal polypeptide receptor 1 (Homo sapiens, UniProt P32241); assay type: cell membranes, Membrane; conditions: ht-29; also: in other assays of this panel Not Active means under 50% inhibition at 10 µM
[2] = target: Matrix metalloproteinase-9 (Homo sapiens, UniProt P14780); assay type: cell-based;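 also: inhibition of isolated MMP-9 enzyme activity toward a synthetic peptide substrate, from the DrugMatrix protease screening panel; in other assays of this panel Not Active means under 50% inhibition at 10 µM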
Substance-P receptor = Substance-P receptor (Homo sapiens, UniProt P25103); assay type: cell membranes, Membrane; conditions: cho; also: in other assays of this panel Not Active means under 50% inhibition at 10 µM
[3] = target: Type-2 angiotensin II receptor (Homo sapiens, UniProt P50052); assay type: cell-based; conditions: cho-k1; also: in other assays of this panel Not Active means under 50% inhibition at 10 µM
[4] = target: 5-hydroxytryptamine receptor 1B (Rattus norvegicus, UniProt P28564); assay type: cell membranes, Wistar, Cerebral cortex, Membrane; also: in other assays of this panel Not Active means under 50% inhibition at 10 µM
[5] = target: C-C chemokine receptor type 5 (Homo sapiens, UniProt P51681); assay type: cell membranes, Membrane; conditions: hek293; also: in other assays of this panel Not Active means under 50% inhibition at 10 µM
[6] = target: Sigma non-opioid intracellular receptor 1 (Homo sapiens, UniProt Q99720); assay: DRUGMATRIX: Sigma1 radioligand binding (ligand: [3H] Haloperidol); assay type: cell membranes, Membrane; conditions: jurkat; Not Active = under 50% inhibition at 10 µM
Glycine receptor = Glycine receptor (Rattus norvegicus, UniProt P22771+P24524+P07727+P20781); assay type: cell membranes, Wistar, Spinal cord, Membrane; also: in other assays of this panel Not Active means under 50% inhibition at 10 µM
Adenosine receptor A1 = Adenosine receptor A1 (Homo sapiens, UniProt P30542); assay type: cell membranes, Membrane; conditions: cho
Progesterone receptor = Progesterone receptor (Bos taurus, UniProt Q690N0); assay: DRUGMATRIX: Progesterone radioligand binding (ligand: [3H] R-5020); assay type: tissue-based, Uterus; conditions: Not Active = under 50% inhibition at 10 µM
Endothelin-1 receptor = Endothelin-1 receptor (Homo sapiens, UniProt P25101); assay type: cell membranes, Membrane; conditions: cho-k1; also: in other assays of this panel Not Active means under 50% inhibition at 10 µM
[7] = target: C-X-C chemokine receptor type 2 (Homo sapiens, UniProt P25025); assay type: cell membranes, Membrane; conditions: cho-k1; also: in other assays of this panel Not Active means under 50% inhibition at 10 µM
[8] = target: 3-hydroxy-3-methylglutaryl-coenzyme A reductase (Homo sapiens, UniProt P04035); design: species or system Escherichia coli
[9] = target: Neuropeptide Y receptor type 1 (Homo sapiens, UniProt P25929); assay type: cell membranes, Membrane; conditions: sk-n-mc; also: in other assays of this panel Not Active means under 50% inhibition at 10 µM
[10] = target: Epidermal growth factor receptor (Homo sapiens, UniProt P00533); assay: DRUGMATRIX: Protein Tyrosine Kinase, EGF Receptor enzyme inhibition (substrate: Poly(Glu:Tyr)); assay type: cell-based, Insect cells; conditions: Not Active = under 50% inhibition at 10 µM
Cytochrome P450 2E1 = Cytochrome P450 2E1 (Homo sapiens, UniProt P05181); conditions: bti-tn-5b1-4; also: in other assays of this panel Not Active means under 50% inhibition at 10 µM
Thromboxane-A synthase = target: T1, Thromboxane-A synthase (Homo sapiens, UniProt P24557); assay: biochemical; assay type: tissue-based, Platelet
T1 sequence (P24557 whole entry): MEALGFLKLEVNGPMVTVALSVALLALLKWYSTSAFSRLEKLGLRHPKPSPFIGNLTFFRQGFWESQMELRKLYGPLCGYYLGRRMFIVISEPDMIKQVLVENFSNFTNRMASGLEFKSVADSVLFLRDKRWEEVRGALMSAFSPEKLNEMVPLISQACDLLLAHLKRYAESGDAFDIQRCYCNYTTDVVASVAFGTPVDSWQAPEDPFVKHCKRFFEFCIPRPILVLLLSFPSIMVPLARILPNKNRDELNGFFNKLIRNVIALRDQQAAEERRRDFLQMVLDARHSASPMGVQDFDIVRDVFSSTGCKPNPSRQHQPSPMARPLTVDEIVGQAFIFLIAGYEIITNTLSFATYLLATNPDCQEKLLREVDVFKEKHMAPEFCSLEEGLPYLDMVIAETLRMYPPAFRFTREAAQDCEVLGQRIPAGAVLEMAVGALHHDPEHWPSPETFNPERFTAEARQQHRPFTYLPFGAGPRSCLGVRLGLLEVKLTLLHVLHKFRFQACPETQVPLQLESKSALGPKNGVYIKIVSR

[11] = target: C-X-C chemokine receptor type 1 (Homo sapiens, UniProt P25024); also: in other assays of this panel Not Active means under 50% inhibition at 10 µM
[12] = target: Receptor tyrosine-protein kinase erbB-2 (Homo sapiens, UniProt P04626); assay: biochemical; assay type: cell-based, Insect cells
[13] = target: Beta-3 adrenergic receptor (Homo sapiens, UniProt P13945); assay: DRUGMATRIX: Adrenergic beta3 radioligand binding (ligand: [125I] Cyanopindolol); assay type: cell membranes, Membrane; conditions: hek293; Not Active = under 50% inhibition at 10 µM
Nitric oxide synthase 1 = Nitric oxide synthase 1 (Rattus norvegicus, UniProt P29476); assay type: tissue-based, Cerebellum; also: in other assays of this panel Not Active means under 50% inhibition at 10 µM
[14] = target: Mitogen-activated protein kinase 14 (Homo sapiens, UniProt Q16539); design: species or system Escherichia coli
[15] = target: Cysteinyl leukotriene receptor 1 (Homo sapiens, UniProt Q9Y271); assay type: cell membranes, Membrane; conditions: cho-k1; also: in other assays of this panel Not Active means under 50% inhibition at 10 µM
[16] = target: Beta-1 adrenergic receptor (Homo sapiens, UniProt P08588); assay: DRUGMATRIX: Adrenergic beta1 radioligand binding (ligand: [125I] Cyanopindolol); assay type: cell membranes, Membrane; conditions: cho-k1; Not Active = under 50% inhibition at 10 µM
[17] = target: Vascular endothelial growth factor receptor 1 (Homo sapiens, UniProt P17948); assay type: cell-based; conditions: huvec; also: in other assays of this panel Not Active means under 50% inhibition at 10 µM
Caspase-1 = Caspase-1 (Homo sapiens, UniProt P29466); design: species or system Escherichia coli
[18] = target: Amine oxidase [flavin-containing] A (Homo sapiens, UniProt P21397); assay: DRUGMATRIX: Monoamine Oxidase MAO-A enzyme inhibition (substrate: Kynuramine); conditions: bti-tn-5b1-4; Not Active = under 50% inhibition at 10 µM
[19] = target: Protein kinase C alpha type (Homo sapiens, UniProt P17252); assay type: cell-based; conditions: sf9
[20] = target: C-C chemokine receptor type 2 (Homo sapiens, UniProt P41597); assay type: cell membranes, Membrane; conditions: cho-k1; also: in other assays of this panel Not Active means under 50% inhibition at 10 µM
Cytochrome P450 3A4 = Cytochrome P450 3A4 (Homo sapiens, UniProt P08684); conditions: bti-tn-5b1-4; also: in other assays of this panel Not Active means under 50% inhibition at 10 µM
Interstitial collagenase = Interstitial collagenase (Homo sapiens, UniProt P03956); assay type: tissue-based, Rheumatoid synovial fibroblasts
Insulin receptor = Insulin receptor (Rattus norvegicus, UniProt P15127); assay type: cell membranes, Wistar, Liver, Membrane; also: in other assays of this panel Not Active means under 50% inhibition at 10 µM

Compound | IC50 [1] | IC50 [2] | IC50 (Substance-P receptor) | IC50 [3] | IC50 [4] | IC50 [5] | IC50 [6] | IC50 (Glycine receptor) | IC50 (Adenosine receptor A1) | IC50 (Progesterone receptor) | IC50 (Endothelin-1 receptor) | IC50 [7] | IC50 [8] | IC50 [9] | IC50 (Cytochrome P450 2E1) | Ki (Cytochrome P450 2E1) | IC50 [11] | IC50 [13] | IC50 (Nitric oxide synthase 1) | IC50 [14] | also measured
CCCCCCCCCCCCCCCC[n+]1ccccc1.[Br-] | Not Active | Not Active | Not Active | Not Active | Not Active | Not Active | Not Active | Not Active | Not Active | Not Active | Not Active | Not Active | Not Active | Not Active | Not Active | Not Active | Not Active | Not Active | Not Active | Not Active | IC50 ([10]; read-out: IC50): 3.47 µM; Ki ([10]; insect cells): Note: corresponding IC50 reported as Active; Ki (Thromboxane-A synthase; platelet): Note: corresponding IC50 reported as Active; IC50 (Thromboxane-A synthase; read-out: IC50): 6.45 µM; Ki ([12]; insect cells): Note: corresponding IC50 reported as Active; IC50 ([12]; read-out: IC50): 1.88 µM; IC50 [15]: Not Active; IC50 [16]: Not Active; IC50 [17]: Not Active; IC50 (Caspase-1): Not Active; IC50 [18]: Not Active; IC50 [19]: Not Active; IC50 [20]: Not Active; IC50 (Cytochrome P450 3A4): Not Active; Ki (Cytochrome P450 3A4): Not Active; IC50 (Interstitial collagenase): Not Active; IC50 (Insulin receptor): Not Active
CCN(Cc1ccncc1)C(=O)C(CO)c1ccccc1 (stereo unspecified) [TROPICAMIDE] | Not Active | Not Active | Not Active | Not Active | Not Active | Not Active | Not Active | Not Active | Not Active | Not Active | Not Active | Not Active | Not Active | Not Active | Not Active | Not Active | Not Active | Not Active | Not Active | Not Active | IC50 ([10]; insect cells): Not Active; IC50 (Thromboxane-A synthase; platelet): Not Active; IC50 ([12]; insect cells): Not Active; IC50 [15]: Not Active; IC50 [16]: Not Active; IC50 [17]: Not Active; IC50 (Caspase-1): Not Active; IC50 [18]: Not Active; IC50 [19]: Not Active; IC50 [20]: Not Active; IC50 (Cytochrome P450 3A4): Not Active; Ki (Cytochrome P450 3A4): Not Active; IC50 (Interstitial collagenase): Not Active; IC50 (Insulin receptor): Not Active
